Measured values: publication doi:10.1101/2025.04.18.649598

By UniProt entry, the sequences of proteins in these tests, tags left out.
UniProt Q921T2: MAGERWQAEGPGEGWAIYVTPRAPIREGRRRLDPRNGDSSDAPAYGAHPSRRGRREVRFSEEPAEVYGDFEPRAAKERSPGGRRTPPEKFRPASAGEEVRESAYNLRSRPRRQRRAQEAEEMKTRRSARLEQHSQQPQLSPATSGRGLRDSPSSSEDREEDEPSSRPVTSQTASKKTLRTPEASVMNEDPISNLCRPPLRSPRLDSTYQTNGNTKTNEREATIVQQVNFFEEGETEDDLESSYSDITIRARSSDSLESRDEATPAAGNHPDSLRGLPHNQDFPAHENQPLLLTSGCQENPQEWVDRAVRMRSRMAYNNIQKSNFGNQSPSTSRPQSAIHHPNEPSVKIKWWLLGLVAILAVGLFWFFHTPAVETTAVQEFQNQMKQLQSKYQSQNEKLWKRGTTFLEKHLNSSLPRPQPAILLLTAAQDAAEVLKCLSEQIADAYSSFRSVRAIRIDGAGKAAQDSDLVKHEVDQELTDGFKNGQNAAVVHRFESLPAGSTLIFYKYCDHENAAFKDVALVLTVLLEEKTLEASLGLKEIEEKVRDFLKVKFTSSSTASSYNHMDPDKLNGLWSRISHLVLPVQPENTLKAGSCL

Biological target: murine Lap1b-TurboID-mNeonGreen (murine) (UniProt Q921T2)
Assay: proximity labelling

B1: Torsin1B (protein, UniProt Q9ER41 25-336)
chain: FEPVSVGIAIGAVSALTGYLSYTDFYCRFTECCHEERPLNTSALKLDLEEKLFGQHLATEVILKALTGFRNNKNSKKPLTLSLHGWAGTGKNFISQIVAENLYPKGLKSNFVHLFVSTLHFPHEQKIKVYQDQLQKWIRGNVSACGSSVFIFDEMDKLHPGIIDAIKPFLDYYEQVDGISYRRAIFIFLSNAGGDLITKTALDFWRAGRKREEIQLKDLEPVLSVGVFNNKHSGLWHSGLIDKNLIDYFIPFLPLEYKHVKMCVRAEMRARGAAVDEDVVTSVADEMTFFPKDEKIYSDKGCKTVQSRLDFH
  binding: binds

No constants are given. Whether binding was seen depends on the method and setting. Binding seen in cells or lysates may run through a third protein. A yes stands for co-enrichment or nearness to the bait. Other partners may have been found.
